# PubChem BioAssay AID1259415 (National Center for Advancing Translational Sciences (NCATS), 2018)
# Hit rate of the full screen: of about 410,000 compounds, about 18,000 (4.4%) were called active. Inconclusive means that the source gave no clear call. Such entries were picked first, then a sample of the others. No stated cut-off is given here; in the data, active means activity change below about -60%; inconclusive means no clear call, values can overlap the other calls; inactive means above about -39%.
# Assay: qHTS Assay for inhibitors of the human cytomegalovirus (HCMV)
# Conditions: HFF cells, HCMV-luciferase reporter, 72 h; at 57.5 µM; active compounds read low
# Summary of the method: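 Human foreskin fibroblasts infected with luciferase-reporter HCMV at MOI 1 PFU/cell, compounds at two doses. Luciferase measured 72 h post infection; normalized to buffer-only basal and Salinomycin (10uM) controls.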
# On the % scale 0 is the no-effect control and ±100 the full control effect.
row,Compound,"activity change, negative = inhibition"
1,CN(C)S(=O)(=O)c1ccc(NC(=S)NC(=O)c2ccc(Br)o2)cc1,inconclusive: -55.2%
2,COc1ccc(Nc2sc(C(=O)c3ccc(Cl)cc3)c(N)c2C(=O)Nc2ccccc2OC)cc1,inconclusive: -40.6%
3,Cc1ccc(NS(=O)(=O)c2ccc3c(c2)oc(=O)n3C)cc1F,inconclusive: -42.6%
4,Cc1ccc(C)n1CCN1CCN(C(=O)CC#N)CC1,inconclusive: -42.2%
5,Cc1nc(N2CCC(C)CC2)c2oc3ccccc3c2n1,inconclusive: -41.3%
6,COc1cc(/C=C2\SC(=O)NC2=O)ccc1Oc1ccc([N+](=O)[O-])cc1[N+](=O)[O-],active: -75.1%
7,O=[N+]([O-])c1ccc(NC(=S)NCCc2ccc(Cl)cc2)cc1,active: -107%
8,CN(CC(=O)N1CCN(Cc2ccccc2)CC1)S(=O)(=O)c1ccc(Br)cc1,inconclusive: -43.5%
9,c1ccc(C(NCCNC(c2ccccc2)c2ccccc2)c2ccccc2)cc1,inactive: -7.15%
10,c1ccc(-c2csc3ncnc(NCCCN4CCOCC4)c23)cc1,inconclusive: -41%
11,CCOC(=O)C(Cc1ccccc1)C1(C)Oc2ccccc2O1 (stereo not drawn),inconclusive: -46.3%
12,C=CCNC(=S)N/N=C/c1ccc(C(F)(F)F)cc1,active: -86.1%
13,CCn1c2ccccc2c2cc(C#N)c(N)nc21,inactive: -5.1%
14,O=C(NCCc1ccc(F)cc1)c1ccc(Cl)c(S(=O)(=O)N2CCOCC2)c1,inconclusive: -57.4%
15,COCc1c(C(=O)N(C)Cc2ccccc2N2CCCC2)oc2ccccc12,inconclusive: -48.5%
16,CC(=O)Nc1cccc(NC(=O)c2cc3c(=O)n4cccc(C)c4nc3n2C)c1,inconclusive: -44.6%
17,O=C(NNC(=O)c1cccs1)c1ccc(S(=O)(=O)N2CCCCC2)cc1,inconclusive: -42.6%
18,O=C(NCCc1nnc2ccc(N3CCCCCC3)nn12)c1ccccc1,inconclusive: -47.5%
19,Cc1ccccc1OCCCC(=O)Nc1nccs1,inconclusive: -59.2%
20,C/C(CC(=O)Nc1ccccc1C#N)=N\NC(=O)c1ccncc1,inconclusive: -47%
21,O=C(NCC1CCCN(Cc2cccc(C(F)(F)F)c2)C1)c1ccc(F)cc1 (stereo not drawn),inactive: -35.6%
22,Cc1ccc(S(=O)(=O)N2C[C@@H](C)[C@]3(C2)[C@H](O)[C@H](OC(=O)NC2CC2)C[C@H]2C(=O)N(c4ccccc4)C(=O)[C@H]23)cc1,inactive: -4.26%

row,Compound,"activity change, negative = inhibition"
1,CC(=O)c1cc(-c2ccccc2)n(CC(=O)Nc2cccc(C)c2C)c1C,inconclusive: -43%
2,Cc1nc(C)c(-c2ccc(SCC(=O)Nc3ccccc3)nn2)s1,inconclusive: -45.2%
3,CN(C)CCNC(=O)c1sc2nc(-c3ccccc3)cc(C(F)(F)F)c2c1N,inactive: -9.25%
4,COCC(C)n1c(C)cc(C(=O)CSc2nnnn2C2CCCC2)c1C (stereo not drawn),inconclusive: -51.2%
5,CC(=O)Nc1ccc(NC(=O)c2ccc(Cn3cc(Cl)cn3)cc2)cc1,inconclusive: -46.7%
6,Cn1c(CCN2CCCCC2)nc2cc(NC(=O)NC3CCCCC3)ccc21,inconclusive: -41.5%
7,O=C(COC(=O)/C=C/c1cccc(Cl)c1)NCCc1ccccc1,inconclusive: -44.4%
8,CCCNc1nc2c(c(=O)n(C)c(=O)n2C)n1CCc1ccccc1,active: -64.7%
9,CC(C)c1c(C#N)c(N)nc(SCC(=O)c2cc3ccccc3oc2=O)c1C#N,inconclusive: -45.2%
10,Cc1c(C#N)c(NC(=O)CCl)n(Cc2cccs2)c1C,active: -92.6%
11,CCCCCC(O)(c1ccc(OC)cc1)C(CN1CCOCC1)c1ccccc1 (stereo not drawn),active: -60.6%
12,CCOc1ccc(NC(=S)NCc2ccco2)cc1,inconclusive: -46.8%
13,Cc1ccc(-c2c[n+](CC(=O)Nc3cc(=O)n(C)c(=O)n3C)c3n2CCC3)cc1,active: -68.2%
14,Cc1[nH]nc2c1C(c1ccc3c(c1)OCO3)C(C#N)=C(N)O2 (stereo not drawn),inconclusive: -49.6%
15,CN(C)c1ccc(/C=C2/C[N+](C)(C)C/C(=C/c3ccc(N(C)C)cc3)C2=O)cc1,inconclusive: -46.1%
16,CCCCc1c(-c2cccc(F)c2)ncn1CCc1ccccc1OC,active: -61.1%
17,COc1ccccc1/C=C/C(=O)OCCCN(C)C,inconclusive: -49.8%
18,CC(=O)N1CCN(CC(=O)Nc2ccc(C)c(S(=O)(=O)N(C)C)c2)CC1,inconclusive: -43.8%
19,CN(c1ccc2nc3ccccc3c(=O)n2n1)C1CCCCC1,active: -90%
20,CC(C)(O)C#Cc1ccc(CN2CCCC(CO)(Cc3cccc(Cl)c3)C2)cc1 (stereo not drawn),active: -82%
21,Cc1onc(C(=O)Nc2sc3c(c2C(N)=O)CCCC3)c1[N+](=O)[O-],inactive: 0%
22,CN(Cc1ccc(Cl)c(Cl)c1)C(=O)C1CC(=O)N(c2ccc3c(c2)OCCO3)C1 (stereo not drawn),inactive: -31%

# Some values from the results shown:
# activity change, negative = inhibition, `COc1ccccc1/C=C/C(=O)OCCCN(C)C` reads inconclusive: -49.8%
# activity change, negative = inhibition, `CN(C)c1ccc(/C=C2/C[N+](C)(C)C/C(=C/c3ccc(N(C)C)cc3)C2=O)cc1` reads inconclusive: -46.1%
# activity change, negative = inhibition, `Cc1onc(C(=O)Nc2sc3c(c2C(N)=O)CCCC3)c1[N+](=O)[O-]` reads inactive: 0%

# (further entries)

row,Compound,"activity change, negative = inhibition"
1,COc1ccccc1CNC(=O)C1CCN(c2nc3ccc(Cl)cc3[nH]2)CC1,inactive: 0%
2,COc1ccc(N2CCN(C(CNS(=O)(=O)c3ccc(C)cc3)c3ccccc3)CC2)cc1 (stereo not drawn),inconclusive: -47.8%
3,O=C(NC(=S)N(CCc1ccccc1)CCc1ccccc1)c1ccco1,inactive: -18.7%
4,CCCCCCC1/C(=N\NC(=O)c2ccccc2)CCC1C(=O)OC (stereo not drawn),inactive: 10.6%
5,C=CCNC(=S)N/N=C/c1ccc(-c2cc(Cl)ccc2Cl)o1,inconclusive: -48%
6,COc1ccc2oc(=N)c(C(=O)Nc3ccc(F)cc3)cc2c1,active: -61.7%
7,CN1CCCC(CC2Oc3ccccc3Sc3ccccc32)C1 (stereo not drawn),inconclusive: -41.7%
8,COc1ccc(-n2c(-c3ccccc3[N+](=O)[O-])nc3ccccc3c2=O)cc1,inconclusive: -54.9%
9,CCc1ccc(NC(=O)c2noc3c2CCC3)cc1,inconclusive: -40.2%
10,COc1cccc(CN(C)C(=O)c2ccc(Cl)c(S(=O)(=O)N3CCCCCC3)c2)c1OC,inconclusive: -49%
11,Cc1csc2ncnc(NCCc3ccccn3)c12,inconclusive: -53.9%
12,CC(C)(C)NC(=O)COC(=O)c1snc(C(=O)NC2CCCCC2)c1N,inconclusive: -43%
13,COc1c(F)c(F)c(C(=O)Nc2ccc(N3CCN(Cc4ccccc4)CC3)cc2)c(F)c1F,inconclusive: -48.7%
14,N#CCN(C(=O)CSc1nnc(C2CC2)n1C1CC1)c1ccccc1,inactive: 63.2%
15,CCCCC(=O)NC(c1cccc([N+](=O)[O-])c1)c1c(OC(C)=O)ccc2ccccc12 (stereo not drawn),inconclusive: -41.1%
16,Cc1ccc(NCc2cccn2-c2nnc(N3CCC(C(=O)NCCc4ccc(Cl)cc4)CC3)s2)cc1,inconclusive: -59.4%
17,COc1ccc(Cl)cc1-c1nc(SCC(=O)NC2CCCC2)n[nH]1,inconclusive: -55.7%
18,CC1CCC(NC(=O)C(=O)Nc2ccc3c(c2)OCO3)CC1 (stereo not drawn),inactive: 35.1%
19,COc1cc2cc(CNc3ccccc3)c(=O)n(CC(=O)Nc3cccc(Cl)c3C)c2cc1OC,inactive: 40.4%
20,CNC(=S)NNC(=O)CNc1ccc(C)c(Cl)c1,inconclusive: -45.1%
21,CC(C)Oc1ccc(/C=C/C(=O)NCC2COc3ccccc3O2)cc1 (stereo not drawn),inactive: 10%
22,C=CCn1c(SCC(=O)NC2CCCCC2)nnc1-c1ccccn1,inconclusive: -47.6%

row,Compound,"activity change, negative = inhibition"
1,O=C(Nc1ccncc1)C1CCN(S(=O)(=O)c2ccccc2C(F)(F)F)CC1,inconclusive: -50.6%
2,O=C(c1cnc2n(c1=O)CCS2)N(C1CCCCC1)C1CCCCC1,inconclusive: -50.7%
3,COc1ccc(C(CNC(=O)c2cccc(S(=O)(=O)NCc3ccccc3)c2)N2CCOCC2)cc1 (stereo not drawn),inconclusive: -41.9%
4,COc1ccc(OC)c(-n2c(Cn3c(-c4ccccn4)nc4ccccc43)n[nH]c2=S)c1,inconclusive: -46.9%
5,CCc1nn(CC(=O)NC2CC2)c(=O)c2cc3c(OC)cccc3n12,inactive: 11.6%
6,COc1cccc(C(=O)N2CCN(CCCc3ccccc3)CC2)c1OC,inconclusive: -47.4%
7,CCCCN(C)c1c(C)nc2ccc(C(=O)NCc3cccs3)cn12,inactive: -12.6%
8,O=C(NCC1COc2ccccc2O1)C1CCCN(S(=O)(=O)c2cccc3nsnc23)C1 (stereo not drawn),inactive: -21.9%
9,COc1nc(C)nc(Cl)c1NC1=NCCN1,inconclusive: -43.9%
10,O=C(NCc1ccc(F)cc1)c1ccc(S(=O)(=O)N2CCCC2)cc1,inactive: -8.44%
11,O=C(CCl)Nc1cn(-c2ccccc2)nc1-c1ccccc1,active: -95.7%
12,COc1cc(O)c(C(CC(=O)N2CCN(c3ccccc3)CC2)c2ccc3c(c2)OCO3)c(OC)c1 (stereo not drawn),inconclusive: -48.8%
13,CCN1CCN(c2ncnc3c2cnn3-c2ccc(C)cc2C)CC1,inconclusive: -41.3%
14,NC(=S)Nc1nccc(-c2cccs2)n1,inactive: 52.1%
15,COc1ccc(Nc2nc(-c3cccnc3)cs2)c(OC)c1,inconclusive: -41%
16,O=C(O)C(c1ccccc1)N1C(=O)/C(=C\c2ccc(-c3ccccc3Cl)o2)SC1=S (stereo not drawn),inconclusive: -41.4%
17,CC(C)(CNC(=O)c1ccc(S(=O)(=O)Nc2ccccc2F)cc1)N1CCOCC1,inactive: -27.7%
18,O[C@H]1C[C@H](c2ccccc2)N(CC2CCCCC2)C[C@@H]1n1cc(C2CC2)nn1,inconclusive: -56.8%
19,CCN(CC)CCCNC(=O)c1ccc(C)c(NC(=O)C2=C(C)OCCS2)c1,inconclusive: -50.7%
20,COc1ccc(C2=Nc3ccccc3NC(c3cccs3)=N2)cc1,inactive: -30%
21,Cc1ccccc1Cn1cc(S(=O)(=O)CC(=O)Nc2nccs2)c2ccccc21,active: -76.2%
22,COc1ccc(OC)c(N2C(=O)[C@@H]3C(c4ccccc4Cl)=NO[C@@H]3C2=O)c1,inconclusive: -42.6%
